Reference: patent US20250129067A1 (Progentos Therapeutics, Inc., priority 2021, published 2025)
The match of structure and compound is tentative.

By UniProt entry, the sequences of proteins in these tests, tags left out. Residues count along the entry.
UniProt P16234, 24-1089 limits assumed: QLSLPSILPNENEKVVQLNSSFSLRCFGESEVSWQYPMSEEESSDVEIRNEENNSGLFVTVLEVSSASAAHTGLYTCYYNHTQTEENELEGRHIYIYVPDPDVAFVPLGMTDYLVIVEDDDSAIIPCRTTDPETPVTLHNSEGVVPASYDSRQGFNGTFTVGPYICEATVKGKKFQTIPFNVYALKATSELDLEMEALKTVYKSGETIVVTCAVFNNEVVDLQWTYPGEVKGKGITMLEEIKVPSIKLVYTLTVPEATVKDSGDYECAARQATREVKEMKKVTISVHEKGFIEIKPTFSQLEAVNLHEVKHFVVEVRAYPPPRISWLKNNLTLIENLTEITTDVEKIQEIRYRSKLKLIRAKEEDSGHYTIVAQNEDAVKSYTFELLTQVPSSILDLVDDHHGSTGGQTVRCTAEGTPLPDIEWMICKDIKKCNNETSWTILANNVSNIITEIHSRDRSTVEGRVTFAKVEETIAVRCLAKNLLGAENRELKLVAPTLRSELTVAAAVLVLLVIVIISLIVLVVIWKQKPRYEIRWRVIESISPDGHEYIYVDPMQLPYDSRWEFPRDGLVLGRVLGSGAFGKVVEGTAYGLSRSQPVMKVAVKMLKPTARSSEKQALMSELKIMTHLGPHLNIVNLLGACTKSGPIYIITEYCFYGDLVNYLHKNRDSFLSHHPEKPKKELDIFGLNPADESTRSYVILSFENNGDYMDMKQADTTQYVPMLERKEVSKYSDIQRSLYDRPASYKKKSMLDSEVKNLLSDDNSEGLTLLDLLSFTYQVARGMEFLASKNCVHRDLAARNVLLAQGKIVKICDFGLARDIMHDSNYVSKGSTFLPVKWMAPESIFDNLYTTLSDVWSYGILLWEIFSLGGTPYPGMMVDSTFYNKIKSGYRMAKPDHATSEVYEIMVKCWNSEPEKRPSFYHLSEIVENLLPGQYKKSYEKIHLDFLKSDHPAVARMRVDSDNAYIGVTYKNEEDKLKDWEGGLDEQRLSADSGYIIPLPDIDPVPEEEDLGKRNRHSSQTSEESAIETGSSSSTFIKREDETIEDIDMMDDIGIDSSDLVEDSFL

Experiments:
[1] = system: Oligodendrocyte progenitor cells (OPCs); assay: In vitro OPC differentiation assay, GPR17 expression (immunocytochemistry); type: cell-based, rat
[2] = target: PDGFRα (Homo sapiens (Human), UniProt P16234); assay: PDGFRα kinase enzyme assay (Promega PDGFRα Kinase Enzyme System, ADP-Glo); type: biochemical; details: read-out: IC50 Values on PDGFRα Kinase Inhibition, IC50; 11-point dose response, 10,000 nM to 0.169 nM; 150 uM ATP; BLQ = below limit of quantitation

Cc1cn(-c2cc3ncc(N4CCCN(C(=O)OC(C)(C)C)CC4)n3cn2)cn1
GPR17 Fold Induction (Over Vehicle; 3 μM) ([1]; 3 μM (10× concentration, final 0.3 μM), 72 hours, fold change over vehicle): 0.88
IC50 [2]: > 10 µM

Cc1cn(-c2cc3ncc(N4CCN(C(=O)OC(C)(C)C)CC4)n3cn2)cn1
fold induction [1]: 0.69
IC50 [2]: > 10 µM
